Experiment [1] deals with Myc-tagged NLRP3 (mouse) (UniProt Q8R4B8). Kind of experiment: co-IP; HEK293T cells co-transfected with tagged plasmids; IP buffer (1% Nonidet P-40, 50 mM Tris-HCl pH 7.4, 50 mM EDTA, 150 mM NaCl); anti-Flag M2 or anti-Myc affinity gel 2 h; immunoblot. Background: In western blotting, separated proteins are transferred to a membrane and probed.
Experiment [2] concerns the target T1, Flag-tagged β-TrCP1 (mouse) (UniProt Q3ULA2).
T1 sequence: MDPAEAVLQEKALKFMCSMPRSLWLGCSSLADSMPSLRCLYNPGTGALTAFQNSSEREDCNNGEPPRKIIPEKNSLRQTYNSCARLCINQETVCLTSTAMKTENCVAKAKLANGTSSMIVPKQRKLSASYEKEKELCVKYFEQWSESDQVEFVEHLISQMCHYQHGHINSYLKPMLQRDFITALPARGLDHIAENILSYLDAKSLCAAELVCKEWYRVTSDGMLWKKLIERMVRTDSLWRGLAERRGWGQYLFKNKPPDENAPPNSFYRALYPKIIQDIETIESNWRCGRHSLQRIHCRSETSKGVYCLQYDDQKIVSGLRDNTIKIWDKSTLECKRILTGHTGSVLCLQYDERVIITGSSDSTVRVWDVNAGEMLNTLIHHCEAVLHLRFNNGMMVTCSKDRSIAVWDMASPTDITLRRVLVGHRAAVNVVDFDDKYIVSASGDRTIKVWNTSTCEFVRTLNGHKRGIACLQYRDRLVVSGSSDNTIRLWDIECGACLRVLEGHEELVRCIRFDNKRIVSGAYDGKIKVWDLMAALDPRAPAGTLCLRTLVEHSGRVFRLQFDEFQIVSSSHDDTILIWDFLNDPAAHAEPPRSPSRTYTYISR
The experiment is described as above.

Protein sequences, listed by entry. Tags and fused reporters are not part of them. Lines headed by an entry give the natural chain unless they say otherwise; changes in a name come on top.
UniProt Q8R4B8: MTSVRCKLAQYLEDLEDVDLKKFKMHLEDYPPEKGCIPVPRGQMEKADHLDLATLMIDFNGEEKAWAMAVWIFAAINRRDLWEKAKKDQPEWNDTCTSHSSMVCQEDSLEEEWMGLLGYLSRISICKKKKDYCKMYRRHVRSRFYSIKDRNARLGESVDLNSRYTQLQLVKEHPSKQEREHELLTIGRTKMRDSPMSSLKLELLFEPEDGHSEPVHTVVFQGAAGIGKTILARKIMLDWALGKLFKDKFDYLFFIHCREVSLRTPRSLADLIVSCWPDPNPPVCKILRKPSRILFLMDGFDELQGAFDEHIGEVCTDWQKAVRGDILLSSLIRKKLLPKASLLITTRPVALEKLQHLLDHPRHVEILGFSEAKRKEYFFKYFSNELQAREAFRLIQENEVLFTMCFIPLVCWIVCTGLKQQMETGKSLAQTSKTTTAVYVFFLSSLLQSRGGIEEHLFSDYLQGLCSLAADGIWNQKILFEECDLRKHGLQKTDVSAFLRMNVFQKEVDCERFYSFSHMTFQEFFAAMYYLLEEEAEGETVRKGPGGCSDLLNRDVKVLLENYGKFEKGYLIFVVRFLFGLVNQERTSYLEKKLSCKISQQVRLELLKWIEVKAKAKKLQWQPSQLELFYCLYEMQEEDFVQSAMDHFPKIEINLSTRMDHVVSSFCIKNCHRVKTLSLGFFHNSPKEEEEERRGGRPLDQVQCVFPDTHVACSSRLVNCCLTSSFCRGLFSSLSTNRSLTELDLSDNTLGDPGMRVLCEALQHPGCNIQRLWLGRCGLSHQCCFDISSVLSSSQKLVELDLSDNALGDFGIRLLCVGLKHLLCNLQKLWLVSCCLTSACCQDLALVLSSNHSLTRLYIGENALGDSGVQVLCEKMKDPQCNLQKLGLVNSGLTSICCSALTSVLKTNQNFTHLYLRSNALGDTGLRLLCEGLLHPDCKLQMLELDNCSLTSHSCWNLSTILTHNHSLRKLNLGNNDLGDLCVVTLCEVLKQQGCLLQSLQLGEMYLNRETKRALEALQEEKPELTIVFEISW
UniProt P46938: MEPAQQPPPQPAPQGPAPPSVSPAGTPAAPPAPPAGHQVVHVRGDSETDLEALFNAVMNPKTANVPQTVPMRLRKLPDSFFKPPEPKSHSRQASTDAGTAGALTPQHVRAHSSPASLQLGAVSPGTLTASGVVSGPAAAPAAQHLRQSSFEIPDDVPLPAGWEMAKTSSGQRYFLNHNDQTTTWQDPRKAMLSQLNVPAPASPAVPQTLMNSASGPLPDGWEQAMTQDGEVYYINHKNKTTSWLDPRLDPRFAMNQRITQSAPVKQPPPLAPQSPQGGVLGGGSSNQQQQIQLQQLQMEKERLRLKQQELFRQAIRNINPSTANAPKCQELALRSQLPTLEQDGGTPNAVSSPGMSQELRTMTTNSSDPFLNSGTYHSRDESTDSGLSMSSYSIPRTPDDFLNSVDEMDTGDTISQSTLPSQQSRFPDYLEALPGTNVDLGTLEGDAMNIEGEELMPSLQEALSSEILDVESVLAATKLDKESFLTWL

Experiment [3] deals with NLRP3 (endogenous, mouse peritoneal macrophages) (mouse (endogenous in peritoneal macrophages)) (UniProt Q8R4B8). Briefly: proximity ligation; Duolink; primary macrophages, LPS 4 h or not, fixed and permeabilised; primary antibody pairs of different species.
In experiment [4] the target is Myc-tagged NLRP3 (mouse) (UniProt Q8R4B8). Briefly: co-IP; HEK293T cells transfected with Myc-NLRP3 and Flag-β-TrCP1, with or without YAP constructs; IP with anti-Myc, probed with anti-Flag.
For experiment [5] the target is unchanged. The experiment is described as above. This is another data set of the same source.
The target in experiment [6] is NLRP3 S891A/S895A mutant (mouse) (UniProt Q8R4B8). Kind of experiment: co-IP; HEK293T cells co-transfected with tagged plasmids; IP buffer (1% Nonidet P-40, 50 mM Tris-HCl pH 7.4, 50 mM EDTA, 150 mM NaCl); anti-Flag M2 or anti-Myc affinity gel 2 h; immunoblot.
Experiment [7] deals with NLRP3 S194A/S197A/S198A (mouse) (UniProt Q8R4B8). The description is as above.
In experiment [8] the target is Myc-tagged NLRP3 (mouse) (UniProt Q8R4B8). The experiment is described as above. The source holds these as a separate data set.
The target of experiment [9] is NLRP3 (endogenous, mouse peritoneal macrophages) (mouse (endogenous in peritoneal macrophages)) (UniProt Q8R4B8). Kind of experiment: co-IP; endogenous proteins; Yap fl/fl lyz2-Cre or Yap fl/fl mouse peritoneal macrophages stimulated with LPS for 4 h or not; IP with anti-NLRP3, probed with anti-β-TrCP1.

These are yes or no findings as the source states them, for the method shown. In cells and extracts the contact can be indirect. Some entries that bind do so weakly or less than the wild type. For some of these results: Where a sequence is shown, tags or fusion partners need not be part of it.

Take “YAP C-terminal transactivation domain (residues 151–488) (from UniProt P46938 151-488) (domain or fragment)”: in the experiment with Myc-tagged NLRP3 (mouse) [1], the binding result is “binds”.

“wild-type YAP (transfected; tag not told for these experiments) (from UniProt P46938 1-488)”: the binding entry (in [2]; with Myc-tagged NLRP3 (mouse) [1]) was “binds” each time.

With “YAP (endogenous, mouse peritoneal macrophages) (from UniProt P46938 1-488)”, the binding result in experiment [3] is recorded as “binds”.

Take His-YAP (from UniProt P46938 1-488): the binding entry in the experiment with Myc-tagged NLRP3 (mouse) [4] is “binds”.

B1: Flag-tagged β-TrCP1 (protein, UniProt Q3ULA2 1-605)
chain: MDPAEAVLQEKALKFMCSMPRSLWLGCSSLADSMPSLRCLYNPGTGALTAFQNSSEREDCNNGEPPRKIIPEKNSLRQTYNSCARLCINQETVCLTSTAMKTENCVAKAKLANGTSSMIVPKQRKLSASYEKEKELCVKYFEQWSESDQVEFVEHLISQMCHYQHGHINSYLKPMLQRDFITALPARGLDHIAENILSYLDAKSLCAAELVCKEWYRVTSDGMLWKKLIERMVRTDSLWRGLAERRGWGQYLFKNKPPDENAPPNSFYRALYPKIIQDIETIESNWRCGRHSLQRIHCRSETSKGVYCLQYDDQKIVSGLRDNTIKIWDKSTLECKRILTGHTGSVLCLQYDERVIITGSSDSTVRVWDVNAGEMLNTLIHHCEAVLHLRFNNGMMVTCSKDRSIAVWDMASPTDITLRRVLVGHRAAVNVVDFDDKYIVSASGDRTIKVWNTSTCEFVRTLNGHKRGIACLQYRDRLVVSGSSDNTIRLWDIECGACLRVLEGHEELVRCIRFDNKRIVSGAYDGKIKVWDLMAALDPRAPAGTLCLRTLVEHSGRVFRLQFDEFQIVSSSHDDTILIWDFLNDPAAHAEPPRSPSRTYTYISR
On to B1, for which the binding result with Myc-tagged NLRP3 (mouse) [5] was “binds”; in experiment [6], “no binding”; in experiment [7] it was “binds”; in the experiment with Myc-tagged NLRP3 (mouse) [8] it was “binds”.

B2: β-TrCP1 (endogenous, mouse peritoneal macrophages) (protein, UniProt Q3ULA2 1-605)
chain: MDPAEAVLQEKALKFMCSMPRSLWLGCSSLADSMPSLRCLYNPGTGALTAFQNSSEREDCNNGEPPRKIIPEKNSLRQTYNSCARLCINQETVCLTSTAMKTENCVAKAKLANGTSSMIVPKQRKLSASYEKEKELCVKYFEQWSESDQVEFVEHLISQMCHYQHGHINSYLKPMLQRDFITALPARGLDHIAENILSYLDAKSLCAAELVCKEWYRVTSDGMLWKKLIERMVRTDSLWRGLAERRGWGQYLFKNKPPDENAPPNSFYRALYPKIIQDIETIESNWRCGRHSLQRIHCRSETSKGVYCLQYDDQKIVSGLRDNTIKIWDKSTLECKRILTGHTGSVLCLQYDERVIITGSSDSTVRVWDVNAGEMLNTLIHHCEAVLHLRFNNGMMVTCSKDRSIAVWDMASPTDITLRRVLVGHRAAVNVVDFDDKYIVSASGDRTIKVWNTSTCEFVRTLNGHKRGIACLQYRDRLVVSGSSDNTIRLWDIECGACLRVLEGHEELVRCIRFDNKRIVSGAYDGKIKVWDLMAALDPRAPAGTLCLRTLVEHSGRVFRLQFDEFQIVSSSHDDTILIWDFLNDPAAHAEPPRSPSRTYTYISR
Regarding B2, in [9], the binding result is “binds”.
